Measurements reported in PubChem BioAssay AID1259405 (NCATS, 2018).

Purpose: 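Mouse-designed siRNAs used to find CHO productivity engineering targets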 (primary screen)
System: Chinese hamster CHO-K1 ovary cells with stable secreted eGFP expression
Knock-down reagent: single siRNA against mouse genes, 0.8 pmol siRNA per well (2 µl of 400 nM stock)
Duration: 3 days
Measured: 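Percent of the per-plate non-targeting control median for intracellular GFP per well by laser scanning cytometry and for cell viability by ATP luminescence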
Reading the numbers: GFP, % of control: higher = more GFP per well, higher productivity; viability (ATP), % of control: higher = more viable cells (more ATP)
Call rule: 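a knock-down is called active if GFP reaches 120% or more of non-targeting control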
The whole screen tested about 50,000 reagents; shown is a part drawn at random. Over the whole deposit, about 4,000 (8%) got an active call. 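Mouse siRNA library applied to hamster cells; one well for each siRNA.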 The numbers tell different reagents against one gene apart. Reagent sequences are not shown.

no.	target	reagent	GFP, % of control	viability (ATP), % of control	Call
1	Ndufa5	1	75.7	98.7	inactive
2	Ndufa5	2	76	70	inactive
3	Pla2g6	1	43.7	36.1	inactive
4	Pla2g6	2	105	102	inactive
5	Pla2g6	3	106	61.3	inactive
6	Vmn1r225	1	41.6	57	inactive
7	Vmn1r225	2	85.7	83.5	inactive
8	Vmn1r225	3	73.2	65	inactive
9	Bmp2k	1	78	64.9	inactive
10	Bmp2k	2	68.7	69.1	inactive
11	Bmp2k	3	85.4	61.9	inactive
12	Bnc1	1	71.9	73.3	inactive
13	Bnc1	2	93.7	91	inactive
14	Bnc1	3	153	158	active
15	Apcs	1	112	110	inactive
16	Apcs	2	89.1	62	inactive
17	Ccl1	1	49.1	58.1	inactive
18	Ccl1	2	87.7	62.5	inactive
19	Ccl1	3	92	56	inactive
20	Kcnj9	1	82	97.7	inactive
21	Kcnj9	2	61.9	83.3	inactive
22	Kcnj9	3	48	67.2	inactive
23	Guca2a	1	59.1	65.6	inactive
24	Guca2a	2	93.4	73.2	inactive
25	Trdv2-2	1	89.6	59.7	inactive
26	Trdv2-2	2	46	69.5	inactive
27	Trdv2-2	3	53.5	79	inactive
28	Or6c68	1	198	101	active
29	Or6c68	2	80.7	77	inactive
30	Or6c68	3	75.6	84	inactive
31	Gpr3	1	156	88.5	active
32	Gpr3	2	70.6	68.3	inactive
33	Gpr3	3	93.6	77.8	inactive
34	Rhox3a	1	82.1	46.9	inactive
35	Rhox3a	2	115	114	inactive
36	Rhox3a	3	63.3	19.2	inactive
37	Rap1a	1	67.9	67.4	inactive
38	Rap1a	2	56.2	53.3	inactive
39	Rap1a	3	105	70.4	inactive
40	Nemp1	1	71.9	81.1	inactive
41	Nemp1	2	90	106	inactive
42	Nemp1	3	198	150	active
43	Kcnn1	1	92.3	80.7	inactive
44	Kcnn1	2	66.1	62.4	inactive
45	Kcnn1	3	74.2	39.7	inactive
46	Hacd4	1	76.7	71.9	inactive
47	Hacd4	2	74	86	inactive
48	Hacd4	3	132	128	active
49	Cxcl10	1	39	24.8	inactive
50	Cxcl10	2	41.5	55.5	inactive
51	Cxcl10	3	79.6	72.9	inactive
52	Zfy2	1	54.3	71	inactive
53	Zfy2	2	63.4	81.4	inactive
54	Zfy2	3	57.6	79.9	inactive
55	Kdm1b	1	46.5	63.6	inactive
56	Kdm1b	2	62.8	73.1	inactive
57	Kdm1b	3	92	99.5	inactive
